# Some of the results follow.
# B1: Erv41-EDTA (Saccharomyces cerevisiae), Q04651 (protein)
# chain: MKFLVNVALVFMVVYISYIYAAAPEHHHHHHDYDIPTTENLYFQGAMGYIDQQYVVDSQVRDTVQINMDIYVNTKCDWLQINVRDQTMDRKLVLEELQLEEMPFFIPYDTKVNDINEIITPELDEILGEAIPAEFREKLDTRSFFDESDPNKAHLPEFNGCHVFGSIPVNRVSGELQITAKSLGYVASRKAPLEELKFNHVINEFSFGDFYPYIDNPLDNTAQFNQDEPLTTYVYYTSVVPTLFKKLGAEVDTNQYSVNDYRYLYKDVAAKGDKMPGIFFKYNFEPLSIVVSDVRL
# Experiments:
# Assay in all cases: glycan array binding signal (z-score within array); higher = stronger binding
# Settings in all cases: glycan notation: IUPAC condensed, linker removed
# [1] = target: Fuc(a1-3)[Gal(b1-4)]GlcNAc(b1-3)Gal(b1-3)[Fuc(a1-4)]GlcNAc
# Method in brief: (§1)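 The Consortium for Functional Glycomics database supplied 3228 glycan arrays, of which those lacking an available protein sequence were dropped. The binding signal, a within-array Z-score, was averaged across arrays of the same protein sequence and across linkers. Negative scores can be read as non-binding.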
# [2] = target: Fuc(a1-3)[Gal(b1-4)]GlcNAc(b1-3)Gal(b1-4)[Fuc(a1-3)]GlcNAc
# Method in brief: as §1
# [3] = target: Fuc(a1-3)[Gal(b1-4)]GlcNAc(b1-3)Gal(b1-4)[Fuc(a1-3)]GlcNAc(b1-3)Gal(b1-4)[Fuc(a1-3)]GlcNAc
# Method in brief: as §1
# [4] = target: Fuc(a1-3)[Gal(b1-4)]GlcNAc(b1-3)GalNAc
# Method in brief: as §1
# [5] = target: Fuc(a1-3)[Gal(b1-4)]GlcNAc(b1-6)GalNAc
# Method in brief: as §1
# [6] = target: Fuc(a1-3)[Gal(b1-4)]GlcNAc(b1-6)[Gal(b1-3)GlcNAc(b1-3)]Gal(b1-4)Glc
# Method in brief: as §1
# [7] = target: Fuc(a1-3)[Gal(b1-4)]GlcNAc6S
# Method in brief: as §1
# [8] = target: Fuc(a1-3)[Gal3S(b1-4)]Glc
# Method in brief: as §1
# [9] = target: Fuc(a1-3)[Gal3S(b1-4)]GlcNAc
# Method in brief: as §1
# [10] = target: Fuc(a1-3)[Gal3S(b1-4)]GlcNAc6S
# Method in brief: as §1
# [11] = target: Fuc(a1-3)[GalNAc(b1-4)]GlcNAc
# Method in brief: as §1
# [12] = target: Fuc(a1-3)[GalNAc(b1-4)]GlcNAc6S
# Method in brief: as §1
# [13] = target: Fuc(a1-4)GlcNAc
# Method in brief: as §1
# [14] = target: Fuc(b1-3)GlcNAc
# Method in brief: as §1
# [15] = target: Gal(a1-2)Gal
# Method in brief: as §1
# [16] = target: Gal(a1-3)Gal
# Method in brief: as §1
# [17] = target: Gal(a1-3)Gal(b1-3)GlcNAc
# Method in brief: as §1
# [18] = target: Gal(a1-3)Gal(b1-3)GlcNAc(b1-2)Man
# Method in brief: as §1
# [19] = target: Gal(a1-3)Gal(b1-3)GlcNAc(b1-2)Man(a1-3)[Gal(a1-3)Gal(b1-3)GlcNAc(b1-2)Man(a1-6)]Man(b1-4)GlcNAc(b1-4)GlcNAc
# Method in brief: as §1
# [20] = target: Gal(a1-3)Gal(b1-3)GlcNAc(b1-3)GalNAc
# Method in brief: as §1
# [21] = target: Gal(a1-3)Gal(b1-3)GlcNAc(b1-6)GalNAc
# Method in brief: as §1
# [22] = target: Gal(a1-3)Gal(b1-3)[Fuc(a1-4)]GlcNAc(b1-2)Man(a1-3)[Gal(a1-3)Gal(b1-3)[Fuc(a1-4)]GlcNAc(b1-2)Man(a1-6)]Man(b1-4)GlcNAc(b1-4)GlcNAc
# Method in brief: as §1
# [23] = target: Gal(a1-3)Gal(b1-4)Glc
# Method in brief: as §1
# [24] = target: Gal(a1-3)Gal(b1-4)GlcNAc
# Method in brief: as §1
# [25] = target: Gal(a1-3)Gal(b1-4)GlcNAc(b1-2)Man
# Method in brief: as §1
# [26] = target: Gal(a1-3)Gal(b1-4)GlcNAc(b1-2)Man(a1-3)[Gal(a1-3)Gal(b1-4)GlcNAc(b1-2)Man(a1-6)]Man(b1-4)GlcNAc(b1-4)GlcNAc
# Method in brief: as §1
# [27] = target: Gal(a1-3)Gal(b1-4)GlcNAc(b1-3)GalNAc
# Method in brief: as §1
# [28] = target: Gal(a1-3)Gal(b1-4)GlcNAc(b1-6)GalNAc
# Method in brief: as §1
# [29] = target: Gal(a1-3)Gal(b1-4)[Fuc(a1-3)]GlcNAc
# Method in brief: as §1
# [30] = target: Gal(a1-3)Gal(b1-4)[Fuc(a1-3)]GlcNAc(b1-2)Man(a1-3)[Gal(a1-3)Gal(b1-4)[Fuc(a1-3)]GlcNAc(b1-2)Man(a1-6)]Man(b1-4)GlcNAc(b1-4)GlcNAc
# Method in brief: as §1
# [31] = target: Gal(a1-3)GalNAc
# Method in brief: as §1
# [32] = target: Gal(a1-3)[Gal(a1-4)]Gal(b1-4)GlcNAc
# Method in brief: as §1
# [33] = target: Gal(a1-4)Gal(b1-3)GlcNAc(b1-2)Man(a1-3)[Gal(a1-4)Gal(b1-3)GlcNAc(b1-2)Man(a1-6)]Man(b1-4)GlcNAc(b1-4)GlcNAc
# Method in brief: as §1
# [34] = target: Gal(a1-4)Gal(b1-4)Glc
# Method in brief: as §1
# [35] = target: Gal(a1-4)Gal(b1-4)GlcNAc
# Method in brief: as §1
# [36] = target: Gal(a1-4)Gal(b1-4)GlcNAc(b1-2)Man(a1-3)[Gal(a1-4)Gal(b1-4)GlcNAc(b1-2)Man(a1-6)]Man(b1-4)GlcNAc(b1-4)GlcNAc
# Method in brief: as §1
# [37] = target: Gal(a1-4)Gal(b1-4)GlcNAc(b1-3)Gal(b1-4)Glc
# Method in brief: as §1
# [38] = target: Gal(a1-4)GlcNAc
# Method in brief: as §1
binder,measurement,setting,value
B1,glycan array binding signal (z-score),[1],-0.893
same,glycan array binding signal (z-score),[2],0.341
same,glycan array binding signal (z-score),[3],-0.434
same,glycan array binding signal (z-score),[4],0.188
same,glycan array binding signal (z-score),[5],0.701
same,glycan array binding signal (z-score),[6],-0.248
same,glycan array binding signal (z-score),[7],0.213
same,glycan array binding signal (z-score),[8],-0.042
same,glycan array binding signal (z-score),[9],0.26
same,glycan array binding signal (z-score),[10],0.891
same,glycan array binding signal (z-score),[11],-0.82
same,glycan array binding signal (z-score),[12],-0.156
same,glycan array binding signal (z-score),[13],0.581
same,glycan array binding signal (z-score),[14],0
same,glycan array binding signal (z-score),[15],-1.08
same,glycan array binding signal (z-score),[16],-0.247
same,glycan array binding signal (z-score),[17],-0.59
same,glycan array binding signal (z-score),[18],0.946
same,glycan array binding signal (z-score),[19],1.34
same,glycan array binding signal (z-score),[20],0.17
same,glycan array binding signal (z-score),[21],0.496
same,glycan array binding signal (z-score),[22],-0.414
same,glycan array binding signal (z-score),[23],-0.338
same,glycan array binding signal (z-score),[24],-0.563
same,glycan array binding signal (z-score),[25],-1.32
same,glycan array binding signal (z-score),[26],0.731
same,glycan array binding signal (z-score),[27],-0.713
same,glycan array binding signal (z-score),[28],1.24
same,glycan array binding signal (z-score),[29],-0.74
same,glycan array binding signal (z-score),[30],2.1
same,glycan array binding signal (z-score),[31],-0.938
same,glycan array binding signal (z-score),[32],-0.005
same,glycan array binding signal (z-score),[33],-0.424
same,glycan array binding signal (z-score),[34],-0.555
same,glycan array binding signal (z-score),[35],0.534
same,glycan array binding signal (z-score),[36],0.57
same,glycan array binding signal (z-score),[37],-0.832
same,glycan array binding signal (z-score),[38],-0.335

# In a second layout: results already given.
binder	measurement	setting	value
B1	glycan array binding signal (z-score)	[2]	0.341
same	glycan array binding signal (z-score)	[4]	0.188

# From the supplement of paper PMC8728848
